Reference: PubChem BioAssay AID1508597 (Cure First, 2020)
This is one part, drawn at random, of about 2,100 reagents. 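Calls flag viability under 80% in either arm, not effects specific to rucaparib; the reference for percent is not stated.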 Some reagents were tested in more than one well and are listed for each. Reagent sequences are not shown. Not given: the 100% reference.

Assay: 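Knock-downs altering ovarian cancer cell survival with or without PARP inhibitor rucaparib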 (primary screen)
Cell system: human ovarian carcinoma lines grown from tumours: OCI-P5x (papillary serous) and OCI-C5x (clear cell)
Reagent: siRNA pool against human genes, 1.25 pmol siRNA per well
Timing: 72 h or 96 h, depending on the cell culture
Treatment: rucaparib 20 µM (about IC30) or vehicle, present until read-out
Measured: 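ATP luminescence measured at 72 or 96 h according to the culture, then normalised and expressed as percent viability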
Reading the numbers: viability, normalised: higher = more viable cells remaining
Active means: 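a well counts as a hit if its normalised viability is under 80 percent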
Meaning of the calls: active = viability under 80%; inactive = viability 80% or more

With SPHK2 (sphingosine kinase 2), rucaparib or vehicle Rucaparib, cell line OCI-C5x (clear cell), technical replicate 1 the deposit lists viability, normalised (%) = 46.7; active.
SPHK2 (sphingosine kinase 2), rucaparib or vehicle Rucaparib, cell line OCI-C5x (clear cell), technical replicate 2 gave viability, normalised (%) = 38; active.
For SPHK2 (sphingosine kinase 2), rucaparib or vehicle Rucaparib, cell line OCI-C5x (clear cell), technical replicate 3 the deposit lists viability, normalised (%) = 33.4; active.
With SPHK2 (sphingosine kinase 2), rucaparib or vehicle Rucaparib, cell line OCI-P5x (serous), technical replicate 1 the deposit lists viability, normalised (%) = 109; inactive.
SPHK2 (sphingosine kinase 2), rucaparib or vehicle Rucaparib, cell line OCI-P5x (serous), technical replicate 2 showed viability, normalised (%) = 107; inactive.
SPHK2 (sphingosine kinase 2), rucaparib or vehicle Rucaparib, cell line OCI-P5x (serous), technical replicate 3 gave viability, normalised (%) = 89.9; inactive.
For SPHK2 (sphingosine kinase 2), rucaparib or vehicle Vehicle, cell line OCI-C5x (clear cell), technical replicate 1 the deposit lists viability, normalised (%) = 42.3; active.
For SPHK2 (sphingosine kinase 2), rucaparib or vehicle Vehicle, cell line OCI-C5x (clear cell), technical replicate 2, the entry reads viability, normalised (%) = 37.9; active.
For SPHK2 (sphingosine kinase 2), rucaparib or vehicle Vehicle, cell line OCI-C5x (clear cell), technical replicate 3, the values are viability, normalised (%) = 25.8; active.
With SPHK2 (sphingosine kinase 2), rucaparib or vehicle Vehicle, cell line OCI-P5x (serous), technical replicate 1, the values are viability, normalised (%) = 72.9; active.
For SPHK2 (sphingosine kinase 2), rucaparib or vehicle Vehicle, cell line OCI-P5x (serous), technical replicate 2, the entry reads viability, normalised (%) = 88.1; inactive.
SPHK2 (sphingosine kinase 2), rucaparib or vehicle Vehicle, cell line OCI-P5x (serous), technical replicate 3 showed viability, normalised (%) = 69; active.
KMT5C (lysine methyltransferase 5C), rucaparib or vehicle Rucaparib, cell line OCI-C5x (clear cell), technical replicate 1 gave viability, normalised (%) = 80.3; inactive.
With KMT5C (lysine methyltransferase 5C), rucaparib or vehicle Rucaparib, cell line OCI-C5x (clear cell), technical replicate 2, the values are viability, normalised (%) = 65.6; active.
KMT5C (lysine methyltransferase 5C), rucaparib or vehicle Rucaparib, cell line OCI-C5x (clear cell), technical replicate 3 gave viability, normalised (%) = 50.1; active.
KMT5C (lysine methyltransferase 5C), rucaparib or vehicle Rucaparib, cell line OCI-P5x (serous), technical replicate 1 gave viability, normalised (%) = 58; active.
With KMT5C (lysine methyltransferase 5C), rucaparib or vehicle Rucaparib, cell line OCI-P5x (serous), technical replicate 2, the values are viability, normalised (%) = 57; active.
For KMT5C (lysine methyltransferase 5C), rucaparib or vehicle Rucaparib, cell line OCI-P5x (serous), technical replicate 3 the deposit lists viability, normalised (%) = 69.4; active.
KMT5C (lysine methyltransferase 5C), rucaparib or vehicle Vehicle, cell line OCI-C5x (clear cell), technical replicate 1 showed viability, normalised (%) = 71.8; active.
KMT5C (lysine methyltransferase 5C), rucaparib or vehicle Vehicle, cell line OCI-C5x (clear cell), technical replicate 2 showed viability, normalised (%) = 78.9; active.
KMT5C (lysine methyltransferase 5C), rucaparib or vehicle Vehicle, cell line OCI-C5x (clear cell), technical replicate 3 scored viability, normalised (%) = 38.4; active.
With KMT5C (lysine methyltransferase 5C), rucaparib or vehicle Vehicle, cell line OCI-P5x (serous), technical replicate 1 the deposit lists viability, normalised (%) = 76.4; active.
For KMT5C (lysine methyltransferase 5C), rucaparib or vehicle Vehicle, cell line OCI-P5x (serous), technical replicate 2, the values are viability, normalised (%) = 57.2; active.
For KMT5C (lysine methyltransferase 5C), rucaparib or vehicle Vehicle, cell line OCI-P5x (serous), technical replicate 3 the deposit lists viability, normalised (%) = 50.1; active.

6 consecutive reagents already listed, quoted:
KMT5C (lysine methyltransferase 5C), rucaparib or vehicle Rucaparib, cell line OCI-P5x (serous), technical replicate 3 — viability, normalised (%): 69.4; call: active
KMT5C (lysine methyltransferase 5C), rucaparib or vehicle Vehicle, cell line OCI-C5x (clear cell), technical replicate 1 — viability, normalised (%): 71.8; call: active
KMT5C (lysine methyltransferase 5C), rucaparib or vehicle Vehicle, cell line OCI-C5x (clear cell), technical replicate 2 — viability, normalised (%): 78.9; call: active
KMT5C (lysine methyltransferase 5C), rucaparib or vehicle Vehicle, cell line OCI-C5x (clear cell), technical replicate 3 — viability, normalised (%): 38.4; call: active
KMT5C (lysine methyltransferase 5C), rucaparib or vehicle Vehicle, cell line OCI-P5x (serous), technical replicate 1 — viability, normalised (%): 76.4; call: active
KMT5C (lysine methyltransferase 5C), rucaparib or vehicle Vehicle, cell line OCI-P5x (serous), technical replicate 2 — viability, normalised (%): 57.2; call: active

Additional records follow.
With PDK1 (pyruvate dehydrogenase kinase 1), rucaparib or vehicle Rucaparib, cell line OCI-C5x (clear cell), technical replicate 1, the entry reads viability, normalised (%) = 38.8; active.
PDK1 (pyruvate dehydrogenase kinase 1), rucaparib or vehicle Rucaparib, cell line OCI-C5x (clear cell), technical replicate 1 gave viability, normalised (%) = 40.1; active.
PDK1 (pyruvate dehydrogenase kinase 1), rucaparib or vehicle Rucaparib, cell line OCI-C5x (clear cell), technical replicate 2 scored viability, normalised (%) = 54.6; active.
For PDK1 (pyruvate dehydrogenase kinase 1), rucaparib or vehicle Rucaparib, cell line OCI-C5x (clear cell), technical replicate 2, the values are viability, normalised (%) = 35.1; active.
With PDK1 (pyruvate dehydrogenase kinase 1), rucaparib or vehicle Rucaparib, cell line OCI-C5x (clear cell), technical replicate 3, the values are viability, normalised (%) = 28.7; active.
With PDK1 (pyruvate dehydrogenase kinase 1), rucaparib or vehicle Rucaparib, cell line OCI-C5x (clear cell), technical replicate 3, the entry reads viability, normalised (%) = 39.8; active.
For PDK1 (pyruvate dehydrogenase kinase 1), rucaparib or vehicle Rucaparib, cell line OCI-P5x (serous), technical replicate 1 the deposit lists viability, normalised (%) = 65.5; active.
With PDK1 (pyruvate dehydrogenase kinase 1), rucaparib or vehicle Rucaparib, cell line OCI-P5x (serous), technical replicate 1, the values are viability, normalised (%) = 71.4; active.
With PDK1 (pyruvate dehydrogenase kinase 1), rucaparib or vehicle Rucaparib, cell line OCI-P5x (serous), technical replicate 2 the deposit lists viability, normalised (%) = 75.4; active.
PDK1 (pyruvate dehydrogenase kinase 1), rucaparib or vehicle Rucaparib, cell line OCI-P5x (serous), technical replicate 2 gave viability, normalised (%) = 78.3; active.
For PDK1 (pyruvate dehydrogenase kinase 1), rucaparib or vehicle Rucaparib, cell line OCI-P5x (serous), technical replicate 3, the values are viability, normalised (%) = 92.9; inactive.
PDK1 (pyruvate dehydrogenase kinase 1), rucaparib or vehicle Rucaparib, cell line OCI-P5x (serous), technical replicate 3 gave viability, normalised (%) = 68.7; active.
PDK1 (pyruvate dehydrogenase kinase 1), rucaparib or vehicle Vehicle, cell line OCI-C5x (clear cell), technical replicate 1 gave viability, normalised (%) = 35.3; active.
For PDK1 (pyruvate dehydrogenase kinase 1), rucaparib or vehicle Vehicle, cell line OCI-C5x (clear cell), technical replicate 1, the values are viability, normalised (%) = 48.7; active.
PDK1 (pyruvate dehydrogenase kinase 1), rucaparib or vehicle Vehicle, cell line OCI-C5x (clear cell), technical replicate 2 showed viability, normalised (%) = 57.7; active.
With PDK1 (pyruvate dehydrogenase kinase 1), rucaparib or vehicle Vehicle, cell line OCI-C5x (clear cell), technical replicate 2, the entry reads viability, normalised (%) = 51; active.
PDK1 (pyruvate dehydrogenase kinase 1), rucaparib or vehicle Vehicle, cell line OCI-C5x (clear cell), technical replicate 3 showed viability, normalised (%) = 37.6; active.
For PDK1 (pyruvate dehydrogenase kinase 1), rucaparib or vehicle Vehicle, cell line OCI-C5x (clear cell), technical replicate 3, the entry reads viability, normalised (%) = 38.2; active.
PDK1 (pyruvate dehydrogenase kinase 1), rucaparib or vehicle Vehicle, cell line OCI-P5x (serous), technical replicate 1 scored viability, normalised (%) = 76; active.
For PDK1 (pyruvate dehydrogenase kinase 1), rucaparib or vehicle Vehicle, cell line OCI-P5x (serous), technical replicate 1, the values are viability, normalised (%) = 62.1; active.
With PDK1 (pyruvate dehydrogenase kinase 1), rucaparib or vehicle Vehicle, cell line OCI-P5x (serous), technical replicate 2, the values are viability, normalised (%) = 70.4; active.
With PDK1 (pyruvate dehydrogenase kinase 1), rucaparib or vehicle Vehicle, cell line OCI-P5x (serous), technical replicate 2, the values are viability, normalised (%) = 84.4; inactive.
With PDK1 (pyruvate dehydrogenase kinase 1), rucaparib or vehicle Vehicle, cell line OCI-P5x (serous), technical replicate 3, the values are viability, normalised (%) = 69.5; active.
PDK1 (pyruvate dehydrogenase kinase 1), rucaparib or vehicle Vehicle, cell line OCI-P5x (serous), technical replicate 3 showed viability, normalised (%) = 73.6; active.
